Data from paper PMC5760070.
Results are given in words; binding and its absence hold for the method and conditions named. In cells and extracts the contact can be indirect. Some binding calls cover weakened binding; strength is not graded here.

Chains of the proteins cited; added tags and fusions are not shown.
UniProt O33269: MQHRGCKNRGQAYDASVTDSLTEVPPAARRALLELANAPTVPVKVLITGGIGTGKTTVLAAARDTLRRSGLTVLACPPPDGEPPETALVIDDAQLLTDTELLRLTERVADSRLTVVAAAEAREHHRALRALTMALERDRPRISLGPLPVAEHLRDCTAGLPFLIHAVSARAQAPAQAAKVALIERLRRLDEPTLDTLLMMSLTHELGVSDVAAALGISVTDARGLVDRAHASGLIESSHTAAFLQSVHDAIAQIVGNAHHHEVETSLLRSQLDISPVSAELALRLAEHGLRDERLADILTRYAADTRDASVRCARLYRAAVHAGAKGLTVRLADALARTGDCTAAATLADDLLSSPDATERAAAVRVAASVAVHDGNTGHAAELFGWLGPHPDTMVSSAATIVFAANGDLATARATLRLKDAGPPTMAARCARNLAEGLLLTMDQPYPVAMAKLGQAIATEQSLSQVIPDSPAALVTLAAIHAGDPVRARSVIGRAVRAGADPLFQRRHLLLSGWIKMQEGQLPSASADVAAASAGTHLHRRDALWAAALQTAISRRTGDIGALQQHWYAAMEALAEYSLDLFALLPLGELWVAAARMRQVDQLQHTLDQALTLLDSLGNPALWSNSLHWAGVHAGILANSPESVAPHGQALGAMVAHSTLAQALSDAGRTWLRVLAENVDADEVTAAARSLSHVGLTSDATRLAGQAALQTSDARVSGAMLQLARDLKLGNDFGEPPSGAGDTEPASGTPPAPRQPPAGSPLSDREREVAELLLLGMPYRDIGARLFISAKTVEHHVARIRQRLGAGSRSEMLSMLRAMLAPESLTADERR

Target: FLAG-tagged IniRMtb (Rv0339c, iniBAC Regulator of M. tuberculosis) (M. tuberculosis) (UniProt O33269)
Experiment: cross-linking

“FLAG-tagged IniRMtb (Rv0339c, iniBAC Regulator of M. tuberculosis) (from UniProt O33269 1-832)” was tested, and the binding was “binds”.
